In publication PMC9688530, “Development of Ic-ELISA and Colloidal Gold Lateral Flow Immunoassay for the Determination of Cypermethrin in Agricultural Samples” (Biosensors, 2022):

Legend:
[1] = recovery in spiked samples by ic-ELISA; details: for Test Value ±SD: n = 3
[2] = Romaine Lettuce, spiked 0.1 μg/g
[3] = Romaine Lettuce, spiked 0.2 μg/g
[4] = Romaine Lettuce, spiked 0.4 μg/g

CC1(C)C(C=C(Cl)Cl)C1C(=O)OC(C#N)c1cccc(Oc2ccccc2)c1 (stereo not drawn) [CYP, Cypermethrin]
Recovery ([1]; Cabbage, spiked 0.1 μg/g): 78.8%
Test Value ±SD ([1]; Cabbage, spiked 0.1 μg/g): 78.8 ± 1.0 ng/g
Recovery ([1]; Cabbage, spiked 0.2 μg/g): 80.3%
Test Value ±SD ([1]; Cabbage, spiked 0.2 μg/g): 160.6 ± 5.2 ng/g
Recovery ([1]; Cabbage, spiked 0.4 μg/g): 87.3%
Test Value ±SD ([1]; Cabbage, spiked 0.4 μg/g): 349.2 ± 1.4 ng/g
Recovery [1, 2]: 81.5%
Test Value ±SD [1, 2]: 81.5 ± 3.8 ng/g
Recovery [1, 3]: 85.2%
Test Value ±SD [1, 3]: 170.4 ± 3.8 ng/g
Recovery [1, 4]: 87.6%
Test Value ±SD [1, 4]: 350.4 ± 13.2 ng/g
Recovery ([1]; Tomato, spiked 0.1 μg/g): 81.4%
Test Value ±SD ([1]; Tomato, spiked 0.1 μg/g): 81.4 ± 1.8 ng/g
Recovery ([1]; Tomato, spiked 0.2 μg/g): 80.9%
Test Value ±SD ([1]; Tomato, spiked 0.2 μg/g): 161.8 ± 4.9 ng/g
Recovery ([1]; Tomato, spiked 0.4 μg/g): 82.6%
Test Value ±SD ([1]; Tomato, spiked 0.4 μg/g): 330.4 ± 12.1 ng/g
limit of quantification (spiked samples by LFIA; cabbage): 1.5 µg/g
limit of quantification (spiked samples by LFIA; romaine lettuce): 3 µg/g
limit of quantification (spiked samples by LFIA; tomato): 1.5 µg/g
